From patent publication US20220275038A1 (TOKYO MEDICAL UNIVERSITY, published 2022)
Results are given in words; binding and its absence hold for the method and conditions named. Binding seen in cells or lysates may run through a third protein. Some entries that bind do so weakly or less than the wild type. Values belong to the molecule of their own block, whether it stands above or below them.

Amino acid sequences for entries named in this document (tags omitted). A change or cut given only in a name is not applied to a line headed by its entry. Chains listed by the source or under a name are the forms on record and can include a tag or linker. Residues count along the entry.
recombinant human ApoE3 (PeproTech, cat. no. 350-02) (P02649, residues 19-317): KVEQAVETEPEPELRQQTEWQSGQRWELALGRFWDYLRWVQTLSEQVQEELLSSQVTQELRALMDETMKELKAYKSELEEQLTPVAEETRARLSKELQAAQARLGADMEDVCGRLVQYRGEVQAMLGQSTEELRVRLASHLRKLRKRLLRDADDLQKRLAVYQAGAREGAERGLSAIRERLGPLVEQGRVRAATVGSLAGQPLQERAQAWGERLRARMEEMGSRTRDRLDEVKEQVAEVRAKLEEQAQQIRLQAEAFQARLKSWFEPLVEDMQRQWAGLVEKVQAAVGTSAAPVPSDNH
recombinant human ApoE4 (PeproTech, cat. no. 350-04) (P02649, form named): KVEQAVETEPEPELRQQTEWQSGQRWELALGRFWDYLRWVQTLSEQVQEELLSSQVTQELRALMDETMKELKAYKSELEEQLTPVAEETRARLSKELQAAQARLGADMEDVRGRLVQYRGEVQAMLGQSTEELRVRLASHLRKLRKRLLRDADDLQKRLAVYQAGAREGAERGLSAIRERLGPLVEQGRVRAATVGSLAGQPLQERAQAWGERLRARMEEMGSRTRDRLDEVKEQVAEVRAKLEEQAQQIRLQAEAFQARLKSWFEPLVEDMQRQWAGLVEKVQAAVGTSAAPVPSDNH
UniProt Q15848: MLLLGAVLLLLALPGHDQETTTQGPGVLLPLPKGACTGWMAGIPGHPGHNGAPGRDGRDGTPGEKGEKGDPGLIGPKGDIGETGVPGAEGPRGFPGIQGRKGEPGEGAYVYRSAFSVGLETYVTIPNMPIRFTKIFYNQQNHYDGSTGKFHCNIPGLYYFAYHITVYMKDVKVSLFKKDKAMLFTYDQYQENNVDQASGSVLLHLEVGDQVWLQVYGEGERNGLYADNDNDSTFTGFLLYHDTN
UniProt P07355: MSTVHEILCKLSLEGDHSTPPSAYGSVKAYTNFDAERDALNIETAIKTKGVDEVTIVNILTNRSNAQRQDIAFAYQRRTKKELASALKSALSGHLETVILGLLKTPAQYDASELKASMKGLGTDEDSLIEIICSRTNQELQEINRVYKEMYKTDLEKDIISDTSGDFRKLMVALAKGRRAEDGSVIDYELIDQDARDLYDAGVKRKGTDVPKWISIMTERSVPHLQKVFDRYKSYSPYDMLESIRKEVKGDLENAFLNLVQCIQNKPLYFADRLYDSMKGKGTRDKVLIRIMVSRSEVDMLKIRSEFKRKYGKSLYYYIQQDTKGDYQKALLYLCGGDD

Key:
[1] = target: apolipoprotein E4 C-terminally tagged with FLAG (overexpressed in F11 cells, immunoprecipitated with FLAG antibody) (human) (UniProt P02649); assay: pull-down with immunoprecipitated ApoE4, myc immunoblot (FIG. 9)
[2] = target: adiponectin C-terminally tagged with FLAG (overexpressed in F11 cells, immunoprecipitated with FLAG antibody) (human) (UniProt Q15848); assay: pull-down of purified MycHis-tagged CLSP proteins with ADN-FLAG immunoprecipitated on M2 agarose beads, WB anti-myc [ADN beads]
[3] = target: apolipoprotein E4 C-terminally tagged with FLAG (overexpressed in F11 cells, immunoprecipitated with FLAG antibody) (human) (UniProt P02649); assay: pull-down of purified MycHis-tagged CLSP proteins with ApoE4-FLAG immunoprecipitated on M2 agarose beads, WB anti-myc [ApoE4 beads]
[4] = target: human CLSP-MycHis (calmodulin-like skin protein, C-terminally tagged with MycHis) (human) (UniProt Q9NZT1); assay: pull-down of recombinant protein (1 nM) with CLSP-MycHis sepharose 4B, silver stain
[5] = target: human CLSP-MycHis (calmodulin-like skin protein, C-terminally tagged with MycHis) (human) (UniProt Q9NZT1); assay: pull-down of F11 cell lysate with CLSP-MycHis sepharose 4B, HA immunoblot
[6] = target: human CLSP-MycHis (calmodulin-like skin protein, C-terminally tagged with MycHis) (human) (UniProt Q9NZT1); assay: pull-down of F11 cell lysate with CLSP-MycHis sepharose 4B, HA immunoblot (FIG. 1)
[7] = target: adiponectin C-terminally tagged with FLAG (overexpressed in F11 cells, immunoprecipitated with FLAG antibody) (human) (UniProt Q15848); assay: pull-down with immunoprecipitated ADN-FLAG, myc immunoblot (FIG. 15 a, b)

binding [1]: binds
binding [2]: binds
binding [3]: binds
Molecule: human CLSP-MycHis (calmodulin-like skin protein, C-terminally tagged with MycHis) (from UniProt Q9NZT1 1-146) (ligand)

binding [4]: binds
Molecule: human adiponectin (BioVendor, cat. no. RD172029100) (from UniProt Q15848 19-244) (ligand)

binding [5]: binds
binding [6]: binds
Molecule: human adiponectin, C-terminally tagged with HA (overexpressed in F11 cells, cell lysate) (from UniProt Q15848 19-244) (ligand)

binding [5]: binds
binding [6]: binds
Molecule: human apolipoprotein E3, C-terminally tagged with HA (overexpressed in F11 cells, cell lysate) (from UniProt P02649 19-317)

binding [4]: binds
Molecule: recombinant annexin II (made from GST-annexin II produced in bacteria) (from UniProt P07355 1-339)

binding [4]: binds
Molecule: recombinant human ApoE3 (PeproTech, cat. no. 350-02) (from UniProt P02649 19-317)

binding [4]: binds
Molecule: recombinant human ApoE4 (PeproTech, cat. no. 350-04) (from UniProt P02649 19-317)

binding [7]: binds
B1: CLSP(1-61)-MycHis (N-terminal region of CLSP, amino acid 1-61, C-terminally tagged with MycHis) (ligand)
chain: MAGELTPEEEAQYKKAFSAVDTDGNGTINAQELGAALKATGKNLSEAQLRKLISEVDSDGD
notes: Made in bacteria; not shown: C-terminal MycHis tag
